Only a part is listed here, and it is no random draw. At the low end of the ranking the order means little.
Key:
ETV6 = ETV6 (UniProt P41212); assay: DAPPL (digital affinity profiling via proximity ligation, sequencing); conditions: 10 mM Tris-HCl pH 7.5, 50 mM NaCl, 1 mM DTT, 4% glycerol, room temperature, 30 min; GST-TFs on glutathione beads, 16-mer random dsDNA library, 0.1% …; high values mean tight binding; double strand, one strand shown; scale: fold enrichment (6-mer frequency, TF over GST control)
ETV7 = ETV7 (UniProt Q9Y603); assay: as above; conditions: 10 mM Tris-HCl pH 7.5, 50 mM NaCl, 1 mM DTT, 4% glycerol, room temperature, 30 min; GST-TFs on glutathione beads, 16-mer random dsDNA library, 0.1% …; high values mean tight binding; double strand, one strand shown; scale: fold enrichment (6-mer frequency, TF over GST control)

Sequences of proteins named here, by UniProt entry; tags and fusion partners are left off. A change or cut given only in a name is not applied to a line headed by its entry.
UniProt P41212: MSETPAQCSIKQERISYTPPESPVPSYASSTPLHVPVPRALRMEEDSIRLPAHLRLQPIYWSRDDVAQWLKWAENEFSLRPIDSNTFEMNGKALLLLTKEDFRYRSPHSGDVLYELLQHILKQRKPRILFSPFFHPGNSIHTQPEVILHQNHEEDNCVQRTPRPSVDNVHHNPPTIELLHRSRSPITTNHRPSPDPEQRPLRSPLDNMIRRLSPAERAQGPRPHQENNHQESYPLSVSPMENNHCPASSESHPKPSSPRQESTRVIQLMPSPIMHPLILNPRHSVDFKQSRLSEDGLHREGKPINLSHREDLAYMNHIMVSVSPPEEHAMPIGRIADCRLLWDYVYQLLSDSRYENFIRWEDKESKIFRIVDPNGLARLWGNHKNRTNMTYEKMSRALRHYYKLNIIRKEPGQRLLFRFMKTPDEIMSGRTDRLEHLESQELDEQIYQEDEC
UniProt Q9Y603: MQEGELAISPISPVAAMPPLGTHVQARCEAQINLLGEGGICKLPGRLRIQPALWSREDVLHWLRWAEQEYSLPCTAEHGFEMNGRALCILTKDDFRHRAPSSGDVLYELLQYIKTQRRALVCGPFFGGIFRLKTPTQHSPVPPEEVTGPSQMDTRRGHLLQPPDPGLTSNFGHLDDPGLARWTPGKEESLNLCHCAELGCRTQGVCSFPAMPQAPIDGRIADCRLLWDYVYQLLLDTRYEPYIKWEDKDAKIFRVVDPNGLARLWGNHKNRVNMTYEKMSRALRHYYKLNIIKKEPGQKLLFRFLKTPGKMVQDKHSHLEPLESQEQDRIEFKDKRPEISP

Sequence | binding signal (ETV6) | binding signal (ETV7)
GGCTAC | 1.2 | 
CCCAAG | 0.945 | 0.936
GTACTG | 0.9 | 0.938
CTGAAG | 1.05 | 
AAGACT | 1.13 | 1.08
CAGCTC | 0.989 | 0.944
GCGGCA | 0.931 | 0.981
AAAGGG | 1.1 | 
AAATCG | 1.05 | 1.08
GATACA | 0.96 | 0.961
TCTGCG | 1.14 | 
TTCGAC | 1.3 | 
TTTTCG | 1.09 | 1.2
TACGGG | 0.855 | 0.926
ACAAGG | 0.97 | 0.91
CAAAAG | 1.01 | 
CCTTCC | 2.74 | 
CCCGCT | 1.38 | 1.36
CCTCGG | 1.24 | 1.11
AGCATA | 0.917 | 1.01
AGAATG | 0.966 | 0.949
TTACAG | 1.19 | 

As entered above.
CCCGCT – binding signal (ETV6): 1.38
GCGGCA – binding signal (ETV6): 0.931

— article PMC7862700
